Reference: PMC11711466
For at least one entry, the source does not settle the construct or the ends of the probe. For some assays here: No signal at the amounts used counts as a negative. For some assays here: The comparison behind a weaker result is the experiment's own reference, which may not be listed here.

Key:
hMCM2-7 (human) = test: negative stain EM, in-solution loading; details: double hexamers, loaded without ORC6, ATP; 25 mM HEPES-KOH pH 7.5, 250 mM KGlu, 1 mM DTT, 4 mM MgOAc, 0.1% Triton X-100, 1 mM ATP or ATPgS, 30 C; high-salt wash adds 300 mM NaCl; in-solution: HEPES-NaOH; recombinant protein; protein details: N-terminal Twin-Strep MCM2, N-terminal 8xHis MCM4; label: 5' biotin on both oligos as listed
hORC1-5 + hORC6 = test: pull-down via Strep-hORC1; details: ORC6 not retained with ORC1-5 in presence of DNA; 25 mM HEPES-KOH pH 7.5, 250 mM KGlu, 1 mM DTT, 4 mM MgOAc, 0.1% Triton X-100, 1 mM ATP or ATPgS, 30 C; high-salt wash adds 300 mM NaCl; in-solution: HEPES-NaOH; recombinant protein

| Sequence | binding result (hMCM2-7 (human)) | binding result (hORC1-5 + hORC6) |
| --- | --- | --- |
| GCCTGCCGCGCATGCGCACGAGGCACCCGGCGCGTCTATACAGCGTGTTGCCGCCGGGGCGGAGCCCGGTCGCATCACGTGACGAAGAGTCAGCTTGTGCAACAGCGTCGGAGGCTCACTAGAAAAAAAAGGGCAGGGTCCCATGCATCGCCTGGGTC (double strand) [158 bp lamin B2] | binds more weakly | – |
| GTTATTTTACAGATTTTATGTTTAGATCTTTTATGCTTGCTTTTCAAAAGGCCTGCAGGCAAGTGCACAAACAATACTTAAATAAATACTA (double strand) [90 bp ARS1] | – | no binding |
